Assay [1] deals with HA-NF90 (ILF3 isoform NF90) (human (ORF amplified from HEK293T cells)). Description: co-IP; HA-NF90 and Flag-tagged factor co-expressed in HEK293T with ectopic mir-144/451 (WT144) or loop mutant (144LM); lysis in 50 mM Tris-HCl pH 7.4, 150 mM NaCl, 1 mM EDTA, 1% Triton X-100; anti-HA magnetic beads, room temperature 2 h; Western blot. (In western blotting, separated proteins are transferred to a membrane and probed.)

Assay [2] shares this target. Description: co-IP; as the HA-NF90 co-IP, IP products treated with 100 U/ml RNase T1 and 40 ug/ml RNase A at 37 C for 20 min, then washed four times with TBS; Western blot.

Results are given in words; binding and its absence hold for the method and conditions named. Binding seen in cells or lysates may run through a third protein. A result given as binding can be weak or reduced; the word gives no strength. Sequences can lack the tags named with a protein.

B1: Flag-TRBP (protein, UniProt Q15633 1-366)
chain: MSEEEQGSGTTTGCGLPSIEQMLAANPGKTPISLLQEYGTRIGKTPVYDLLKAEGQAHQPNFTFRVTVGDTSCTGQGPSKKAAKHKAAEVALKHLKGGSMLEPALEDSSSFSPLDSSLPEDIPVFTAAAAATPVPSVVLTRSPPMELQPPVSPQQSECNPVGALQELVVQKGWRLPEYTVTQESGPAHRKEFTMTCRVERFIEIGSGTSKKLAKRNAAAKMLLRVHTVPLDARDGNEVEPDDDHFSIGVGSRLDGLRNRGPGCTWDSLRNSVGEKILSLRSCSLGSLGALGPACCRVLSELSEEQAFHVSYLDIEELSLSGLCQCLVELSTQPATVCHGSATTREAARGEAARRALQYLKIMAGSK
With B1, the binding entry in assay [1] and in assay [2] was “binds” each time.

B2: Flag-Drosha (enzyme, UniProt Q9NRR4 1-1374)
chain: MMQGNTCHRMSFHPGRGCPRGRGGHGARPSAPSFRPQNLRLLHPQQPPVQYQYEPPSAPSTTFSNSPAPNFLPPRPDFVPFPPPMPPSAQGPLPPCPIRPPFPNHQMRHPFPVPPCFPPMPPPMPCPNNPPVPGAPPGQGTFPFMMPPPSMPHPPPPPVMPQQVNYQYPPGYSHHNFPPPSFNSFQNNPSSFLPSANNSSSPHFRHLPPYPLPKAPSERRSPERLKHYDDHRHRDHSHGRGERHRSLDRRERGRSPDRRRQDSRYRSDYDRGRTPSRHRSYERSRERERERHRHRDNRRSPSLERSYKKEYKRSGRSYGLSVVPEPAGCTPELPGEIIKNTDSWAPPLEIVNHRSPSREKKRARWEEEKDRWSDNQSSGKDKNYTSIKEKEPEETMPDKNEEEEEELLKPVWIRCTHSENYYSSDPMDQVGDSTVVGTSRLRDLYDKFEEELGSRQEKAKAARPPWEPPKTKLDEDLESSSESECESDEDSTCSSSSDSEVFDVIAEIKRKKAHPDRLHDELWYNDPGQMNDGPLCKCSAKARRTGIRHSIYPGEEAIKPCRPMTNNAGRLFHYRITVSPPTNFLTDRPTVIEYDDHEYIFEGFSMFAHAPLTNIPLCKVIRFNIDYTIHFIEEMMPENFCVKGLELFSLFLFRDILELYDWNLKGPLFEDSPPCCPRFHFMPRFVRFLPDGGKEVLSMHQILLYLLRCSKALVPEEEIANMLQWEELEWQKYAEECKGMIVTNPGTKPSSVRIDQLDREQFNPDVITFPIIVHFGIRPAQLSYAGDPQYQKLWKSYVKLRHLLANSPKVKQTDKQKLAQREEALQKIRQKNTMRREVTVELSSQGFWKTGIRSDVCQHAMMLPVLTHHIRYHQCLMHLDKLIGYTFQDRCLLQLAMTHPSHHLNFGMNPDHARNSLSNCGIRQPKYGDRKVHHMHMRKKGINTLINIMSRLGQDDPTPSRINHNERLEFLGDAVVEFLTSVHLYYLFPSLEEGGLATYRTAIVQNQHLAMLAKKLELDRFMLYAHGPDLCRESDLRHAMANCFEALIGAVYLEGSLEEAKQLFGRLLFNDPDLREVWLNYPLHPLQLQEPNTDRQLIETSPVLQKLTEFEEAIGVIFTHVRLLARAFTLRTVGFNHLTLGHNQRMEFLGDSIMQLVATEYLFIHFPDHHEGHLTLLRSSLVNNRTQAKVAEELGMQEYAITNDKTKRPVALRTKTLADLLESFIAALYIDKDLEYVHTFMNVCFFPRLKEFILNQDWNDPKSQLQQCCLTLRTEGKEPDIPLYKTLQTVGPSHARTYTVAVYFKGERIGCGKGPSIQQAEMGAAMDALEKYNFPQMAHQKRFIERKYRQELKEMRWEREHQEREPDETEDIKK
On to B2, for which, in assay [1], the binding result was “no binding”.

B3: Flag-DGCR8 (protein, UniProt Q8WYQ5 1-773)
chain: METDESPSPLPCGPAGEAVMESRARPFQALPREQSPPPPLQTSSGAEVMDVGSGGDGQSELPAEDPFNFYGASLLSKGSFSKGRLLIDPNCSGHSPRTARHAPAVRKFSPDLKLLKDVKISVSFTESCRSKDRKVLYTGAERDVRAECGLLLSPVSGDVHACPFGGSVGDGVGIGGESADKKDEENELDQEKRVEYAVLDELEDFTDNLELDEEGAGGFTAKAIVQRDRVDEEALNFPYEDDFDNDVDALLEEGLCAPKKRRTEEKYGGDSDHPSDGETSVQPMMTKIKTVLKSRGRPPTEPLPDGWIMTFHNSGVPVYLHRESRVVTWSRPYFLGTGSIRKHDPPLSSIPCLHYKKMKDNEEREQSSDLTPSGDVSPVKPLSRSAELEFPLDEPDSMGADPGPPDEKDPLGAEAAPGALGQVKAKVEVCKDESVDLEEFRSYLEKRFDFEQVTVKKFRTWAERRQFNREMKRKQAESERPILPANQKLITLSVQDAPTKKEFVINPNGKSEVCILHEYMQRVLKVRPVYNFFECENPSEPFGASVTIDGVTYGSGTASSKKLAKNKAARATLEILIPDFVKQTSEEKPKDSEELEYFNHISIEDSRVYELTSKAGLLSPYQILHECLKRNHGMGDTSIKFEVVPGKNQKSEYVMACGKHTVRGWCKNKRVGKQLASQKILQLLHPHVKNWGSLLRMYGRESSKMVKQETSDKSVIELQQYAKKNKPNLHILSKLQEEMKRLAEEREETRKKPKMSIVASAQPGGEPLCTVDV
Consider B3, for which the binding entry in assay [1] was “binds weakly”.

The values are drawn from paper PMC9303283.
